{"source": "PubChem BioAssay AID743121, NCATS, 2013", "screen": "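Knock-downs that sensitise breast cancer cells to camptothecin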 (primary screen)", "cells": "MDA-MB-231 cells, a human breast cancer line", "reagent": "single siRNA against human genes, 20 nM siRNA (0.8 pmol per well)", "time to read-out": "120 h (drug added 48 h after transfection, read 72 h later)", "challenge": "camptothecin 20 nM (about EC30) for 72 h; vehicle 0.1% DMSO in parallel plates", "measured": "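Cell viability by ATP luminescence (CellTiter-Glo) as % of non-targeting siRNA wells, and the log2 ratio of viability without drug over viability with camptothecin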", "direction": "log2 vehicle/camptothecin viability: higher = stronger sensitisation to camptothecin", "active means": "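Active genes have an RSA gene-level p-value below 0.001, computed from the ratios of their separate siRNAs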", "note": "Shown is a random part of about 26,000 deposited reagents. In the full data, 167 (0.63%) were called active. 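Calls are per gene from RSA p-values that are not deposited; an individual active-marked siRNA can sensitise only weakly.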 A number with no mark means an inactive call. Reagents against one gene are numbered here. Not all columns of the deposit are shown."}
The opening 2 records, ahead of the listing:
{"target": "PAX3", "reagent": 1, "log2 vehicle/camptothecin viability": -0.216}
{"target": "PAX3", "reagent": 2, "log2 vehicle/camptothecin viability": -0.386}

Results, repeating the preview:
{"target": "PAX3", "reagent": 1, "log2 vehicle/camptothecin viability": -0.216}
{"target": "PAX3", "reagent": 2, "log2 vehicle/camptothecin viability": -0.386}
{"target": "PAX3", "reagent": 3, "log2 vehicle/camptothecin viability": 0.106}
{"target": "PAX3", "reagent": 4, "log2 vehicle/camptothecin viability": -0.502}
{"target": "COMT", "reagent": 1, "log2 vehicle/camptothecin viability": -0.148}
{"target": "COMT", "reagent": 2, "log2 vehicle/camptothecin viability": -0.555}
{"target": "COMT", "reagent": 3, "log2 vehicle/camptothecin viability": 0.00225}
{"target": "GABRR3", "reagent": 1, "log2 vehicle/camptothecin viability": -0.39}
{"target": "GABRR3", "reagent": 2, "log2 vehicle/camptothecin viability": -0.37}
{"target": "GABRR3", "reagent": 3, "log2 vehicle/camptothecin viability": -0.432}
{"target": "GABRR3", "reagent": 4, "log2 vehicle/camptothecin viability": -0.0863}
{"target": "OVOL1", "reagent": 1, "log2 vehicle/camptothecin viability": -0.322}
{"target": "OVOL1", "reagent": 2, "log2 vehicle/camptothecin viability": 0.0482}
{"target": "OVOL1", "reagent": 3, "log2 vehicle/camptothecin viability": -0.396}
{"target": "OVOL1", "reagent": 4, "log2 vehicle/camptothecin viability": 0.215}
